{"sequences": {"note": "Chains of the proteins cited; added tags and fusions are not shown.", "UniProt Q91YE7": "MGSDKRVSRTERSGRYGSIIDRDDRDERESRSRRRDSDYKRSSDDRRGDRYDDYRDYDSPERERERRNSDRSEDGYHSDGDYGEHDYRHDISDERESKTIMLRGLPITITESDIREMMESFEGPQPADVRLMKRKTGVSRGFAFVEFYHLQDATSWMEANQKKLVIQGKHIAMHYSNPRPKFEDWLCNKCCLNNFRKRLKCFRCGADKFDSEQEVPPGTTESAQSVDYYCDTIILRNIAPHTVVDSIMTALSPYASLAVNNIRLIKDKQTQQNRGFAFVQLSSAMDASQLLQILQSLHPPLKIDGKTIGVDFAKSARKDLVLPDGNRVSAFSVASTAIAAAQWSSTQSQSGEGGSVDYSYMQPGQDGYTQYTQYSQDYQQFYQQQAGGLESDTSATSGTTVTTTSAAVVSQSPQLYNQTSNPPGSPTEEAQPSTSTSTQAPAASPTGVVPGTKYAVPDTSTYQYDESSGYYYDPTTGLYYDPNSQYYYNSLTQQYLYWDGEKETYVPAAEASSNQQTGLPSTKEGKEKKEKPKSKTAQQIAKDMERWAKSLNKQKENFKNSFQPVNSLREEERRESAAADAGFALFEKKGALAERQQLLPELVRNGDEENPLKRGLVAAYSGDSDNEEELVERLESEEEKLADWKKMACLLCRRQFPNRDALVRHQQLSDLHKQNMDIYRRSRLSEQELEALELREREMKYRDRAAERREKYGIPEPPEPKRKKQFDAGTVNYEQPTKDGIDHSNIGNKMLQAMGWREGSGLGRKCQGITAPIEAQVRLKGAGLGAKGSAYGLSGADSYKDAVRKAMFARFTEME", "UniProt O88569": "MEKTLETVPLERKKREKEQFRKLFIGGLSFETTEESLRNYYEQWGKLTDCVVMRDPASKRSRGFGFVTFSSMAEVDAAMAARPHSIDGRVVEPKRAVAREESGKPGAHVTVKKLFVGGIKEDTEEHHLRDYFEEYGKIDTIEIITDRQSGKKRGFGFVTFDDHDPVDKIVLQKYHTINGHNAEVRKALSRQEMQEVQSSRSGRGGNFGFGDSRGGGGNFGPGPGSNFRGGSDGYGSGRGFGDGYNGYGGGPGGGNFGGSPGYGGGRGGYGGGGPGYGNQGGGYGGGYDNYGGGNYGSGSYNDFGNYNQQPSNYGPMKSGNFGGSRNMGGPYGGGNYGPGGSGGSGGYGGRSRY"}, "source": "paper PMC3723494", "molecules": {"B1": {"name": "splicing factor SFPQ (proline- and glutamine-rich) (protein, UniProt Q8VIJ6 1-699)", "chain": "MSRDRFRSRGGGGGGFHRRGGGGGRGGLHDFRSPPPGMGLNQNRGPMGPGPGGPKPPLPPPPPHQQQQQPPPQQPPPQQPPPHQQPPPHQPPHQQPPPPPQESKPVVPQGPGSAPGVSSAPPPAVSAPPANPPTTGAPPGPGPTPTPPPAVPSTAPGPPPPSTPSSGVSTTPPQTGGPPPPPAGGAGPGPKPGPGPGGPKGGKMPGGPKPGGGPGMGAPGGHPKPPHRGGGEPRGGRQHHAPYHQQHHQGPPPGGPGPRTEEKISDSEGFKANLSLLRRPGEKTYTQRCRLFVGNLPADITEDEFKRLFAKYGEPGEVFINKGKGFGFIKLESRALAEIAKAELDDTPMRGRQLRVRFATHAAALSVRNLSPYVSNELLEEAFSQFGPIERAVVIVDDRGRSTGKGIVEFASKPAARKAFERCSEGVFLLTTTPRPVIVEPLEQLDDEDGLPEKLAQKNPMYQKERETPPRFAQHGTFEYEYSQRWKSLDEMEKQQREQVEKNMKDAKDKLESEMEDAYHEHQANLLRQDLMRRQEELRRMEELHSQEMQKRKEMQLRQEEERRRREEEMMIRQREMEEQMRRQREESYSRMGYMDPRERDMRMGGGGTMNMGDPYGSGGQKFPPLGGGGGIGYEANPGVPPATMSGSMMGSDMRTERFGQGGAGPVGGQGPRGMGPGTPAGYGRGREEYEGPNKKPRF"}}, "target": "RBM5 (RNA binding motif 5) (mouse (endogenous in round spermatids)) (UniProt Q91YE7)", "experiment": "co-IP; co-immunoprecipitation from round spermatid extracts with the RBM5 antibody (IgG pull down as control), immunoblot for SFPQ and hnRNP A2/B1", "note": "Results are given in words; binding and its absence hold for the method and conditions named. In cells and extracts the contact can be indirect. Some binding calls cover weakened binding; strength is not graded here."}
{"molecule": "hnRNP A2/B1 (heterogeneous nuclear ribonucleoprotein A2/B1) (from UniProt O88569 1-353)", "values": [{"measurement": "binding", "result": "binds"}]}
{"molecule": "B1", "values": [{"measurement": "binding", "result": "binds"}]}
